In patent US11873267B2, “Functionalized N,N-dialkylamino phenyl ethers and their method of use” (Temple University-Of The Commonwealth System of Higher …, priority 2016, dated 2024):

What was measured:
[1] = test system: β-Glucocerebrosidase (GCase); experiment: β-Glucocerebrosidase (GCase) activity in lysates of compound-treated Gaucher patient fibroblasts (4-MUG substrate); assay type: cell-based, human; conditions: 10 μM, 3 days, Gaucher patient fibroblast lysates, no change = 1
Procedure: β-Glucocerebrosidase Activity Enhanced in Gaucher Patient Cells after Tamoxifen and synthesized analog treatment: Gaucher patient fibroblasts were cultured for 3 days in 10 μM final concentration tamoxifen, MC210155 or MC150235. Cellular lysates were prepared from compound treated cells and non-treated cells were included as a control. β-Glucocerebrosidase (GCase) activity was directly measured from lysates prepared from treated cells using a fluorescent substrate 4-methylumbelliferyl-β-D-glucopyranoside (MUG). Cells were washed 3× with phosphate-buffered saline (PBS) and detached by scraping. After centrifugation, The pellets were frozen on dry ice, thawed and lysed in McIlvaine (MI) buffer (100 mM sodium citrate, 200 mM sodium phosphate dibasic, 0.25% sodium taurocholate, and 0.1% Triton X-100, pH 5.2 containing protease inhibitors). […] Fluorescence was measured on a Clariostar plate reader (BMG Labtech) for one second per well using 355 nm excitation and 460 nm emission. Total protein was determined with the Bradford protein assay kit (BioRad) according to the manufacturer's instructions. The GCase activity measured after compound treatment is normalized to non-treated cells and expressed as relative activity where no change in GCAse activity is equal 1 (FIG. 3).

[2] = test system: Wild-type patient fibroblasts (Coriell Institute, GM 005659); experiment: cells; conditions: Homo sapiens, Fibroblast, 72 h, read-out: EC50, GPN-induced response on wild type cells
Procedure: Gaucher patient fibroblasts (Coreill Institute, GM08760) were cultured in EMEM with 15% FBS, 1% Pen/Strep at 37° C./5% CO2. Wild-type patient fibroblasts (Coriell Institute, GM 005659) were used as a control cell line. Cells are plated with a MultiFlo dispenser (800 cells/well in 30 μL of complete growth media) in black/clear bottom 384-well plates and cultured for 24 hours at 37° C., 5% CO2. Compounds of the disclosure are then added to the cells (12 point dose response curve, 150 nM to 30 uM final compound concentration using a 5.0 μL of a 7× stock solution (1.05 μM to 210 μM)) under sterile conditions and continued in culture for 72 hours at 37° C., 5% CO2. […] The data from each well were normalized with basal fluorescence by dividing the maximum fluorescence over the entire real time reading by the initial basal fluorescence.
Cells (800 cells/well) were plated with a MultiFlo dispenser (BioTek) and cultured for 24 h at 37° C., 5% CO2. […] Cells were loaded with Screen Quest™ Fluo-8 No Wash Calcium mix (ATT Bio) and analyzed for changes in response to GPN. The data from each well were normalized with basal fluorescence by dividing the maximum fluorescence over the entire real time reading by the initial basal fluorescence. […] EC50 and Hill slope values are determined using a four-parameter dose-response (variable slope) equation in GraphPad Prism.

[3] = test system: Gaucher patient fibroblasts (Coreill Institute, GM08760); experiment: GPN induced calcium release phenotypic assay on Gaucher patient fibroblasts; assay type: cell-based; conditions: Homo sapiens, Fibroblast; Gaucher patient cells, 72 hours compound treatment, 50 μM GPN

**Q.** With `CC/C(=C(\c1ccccc1)c1ccc(OCCN(C)C)cc1)c1ccccc1` [Tamoxifen, reference compound] as the compound, how does the “GCase activity relative to non-treated cells” value [1] read?
**A.** increase in GCase activity

**Q.** And the EC50 [2]?
**A.** 4 ± 0.38 µM

**Q.** And the EC50 [3]?
**A.** 8.8 ± 0.18 µM
